Data as given in PubChem BioAssay AID1347423 (Functional Genomics Laboratory (NCATS/FGL), 2020).
Among all 52,000 sequences or so, about 210 (0.4%) were called active.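 Rule for the calls: active = gene whose silencing raises cell survival under the drug, median off-target-corrected z-score across its silencing RNAs 2 or more; inactive = the rest.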 The list shows a part of the results.

Assay: Resistance to Poly (ADP-Ribose) Polymerase inhibitor: Gene Identification via Genome-wide siRNA Screen
Settings: mouse BRCA2 R2336H ES cells, olaparib, CellTiter-Glo viability; active compounds read high
Outline: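 Genome-wide siRNA screen (3 siRNAs/gene, 20 nM) in mouse ES cells carrying hypomorphic BRCA2 R2336H; olaparib 500 nM added 48 h post-transfection, CellTiter-Glo viability 72 h later. Normalized to plate-median negative control; MAD z-scores, gene median, seed-adjusted.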

Sequence | z-score
GGUACUUGUACUAAUCGCUTT against A330042H22 | inactive: 1.01
GGAAGAGGAGGGAAGGAUCTT against Robo3 | inactive: -1.39
GGAUGAAGUUUACCACCUGTT against Ptgir | inactive: 1.23
GCUAUUGUGUAUUUUCCAATT against BC042513 | inactive: 0.00924
GGACUAUGUGGCCCAGUGUTT against Cml5 | inactive: -0.531
CCCAGACUCAGUUUUAACUTT against Ssb4 | inactive: -0.251
GGUAAGGACUAUUUGAAUUTT against Edg2 | inactive: 0.57
CGUGCCAGACCUAUAGCUUTT against B930074I24 | inactive: 0.374
GGUCUUAAAGCAUGAGAAGTT against Med8 | inactive: 0.253
GCACUACCAAGGCGAUAACTT against 6720430O15 | inactive: -0.132
GGCCUUGGCAAUUAUUUGUTT against Syap1 | inactive: 0.248
GCCUUAUUUGAAAUACAGATT against AU021107 | inactive: -1.29
GGUUUUCACCAAUCGGAUGTT against H2-T24 | inactive: -0.593
GCACAAGAGGUAUCCUUGCTT against A630038D02 | inactive: -0.381
GCCGACAACACAAAAUUAUTT against 2310075A12Rik | inactive: 0.828
GGUUCUAGACAAACAUUUUTT against 4930522D07Rik | inactive: -1.42
CGAAGCACAUAUCUUUGAUTT against Zfp41 | inactive: 1.64
GAAGUCCUGAAGAAGCUCATT against Cart | inactive: 1.32
GGUACAUGAAUUCCAAUACTT against 4832412O06Rik | inactive: 1.06
GGAAUUCCUUCACAUCUGGTT against Mtac2d1 | inactive: 0.146
GCGAUGAUAAGUGCCUGGUTT against Stk31 | inactive: -0.901
GGUCUACGUAGAGGAGCUGTT against Mrpl28 | inactive: -1.76
GGUAUUGGAUCAUUUACAATT against Appbp1 | inactive: -0.406
GUUUACCUCAGCUGUUUUCTT against Olfr495 | inactive: 2.14
GGAUGAAUGUUGCUUGUGUTT against 4933429F08Rik | inactive: -0.322
GCUCCUCCAUCAGUUAGAUTT against Ube2v2 | inactive: 0.246

Sequence | z-score
GGGUGUCUUACACCUUACATT against Sertad2 | inactive: -0.572
GGAUUCAUAAACUUGUGUGTT against Atic | inactive: -0.0486
GGGUGACCUAAUCCAGUGUTT against Neurog3 | inactive: 0.779
GGCUAGCUACACAGUCUCATT against Plscr2 | inactive: -0.00856
GCUCAUCUCGAUUUGACUGTT against Cln3 | inactive: -0.183
GGGACAUAUUGUUUCCCUUTT against 4930563P21Rik | inactive: -0.817
GGGCAAAUGAAAACAAGAATT against 4933434M16Rik | inactive: 0.754
CCUGUAACCAGUAUAAAUATT against Fmo3 | inactive: -1.04
GGGAAUUACUGUUUCUGUCTT against E030041M21Rik | inactive: 0.962
CGCAAGGACCGAUCUGAUGTT against Rnps1 | inactive: -0.254
GGUUUGAAAGUUCUUUUGUTT against Zcsl2 | inactive: -0.239
GCUCACAGCAGCAUUUUACTT against 1700034H15Rik | inactive: 0.39
GGUGGGAAGAGUUUCAUCATT against Tesk2 | inactive: 1.38
GGAGGAAUAUCAGUCCCUGTT against 1110021H02Rik | inactive: -1.3
CCACAUAUAUCAACAAGCUTT against Olfr916 | inactive: 0.479
GCCUAGGUGACCUAAACUATT against D830014E11Rik | inactive: -0.0722
GGAGUUUCCCUCAAGAAAATT against Tgfbr3 | inactive: 2.42
GGCAGCCAAAUAUGGUGCUTT against Eln | inactive: 1.85
GGAUUGCAUCUUCCUCGAATT against Olfr816 | inactive: -0.676
GGAAGGUGACAAGCACACCTT against S100a6 | inactive: 1.68
GGAAAUGUGGAAUACACCGTT against Prlpf | inactive: -0.98
GGUCUUACGAGUAUUUUUUTT against 0610013E23Rik | inactive: 1.06
GCACUUGUGACUUAUUGGATT against 4930518C23Rik | inactive: -0.955
GCGCGAGGAAUUGAAACUCTT against Gna15 | inactive: 1.28
GGCGAGUGUGCAGAAGUUUTT against Ifi44 | inactive: 1.11
GGAUGUGGAGAUGAAAGAGTT against Psmd3 | inactive: -2.9

At a glance, some entries already given.
Sequence | z-score
CGCAAGGACCGAUCUGAUGTT against Rnps1 | inactive: -0.254
GGUUUGAAAGUUCUUUUGUTT against Zcsl2 | inactive: -0.239

Next records follow:

Sequence | z-score
GGAGGAUUUCAAGACAGCATT against 5430420C16Rik | inactive: 0.0169
GGACUGAAACUAGGUAGGGTT against Dact2 | inactive: 0.771
CCUCACGGCCUUAUAUCUCTT against Fmod | inactive: 0.0939
GGACUUGAACUGAAAAGUUTT against D830013H23Rik | inactive: 0.299
GCUGUGAUCUCAGUAUUCATT against Strbp | inactive: 2.3
GGGUGUUGAUGUCAUUGUGTT against Dbn1 | inactive: 0.871
GCAUUUUAAUGCGCCAGUUTT against Atp2c1 | inactive: -1
CCAAUGAAUACUUGUCAGCTT against Cpne2 | inactive: -1.21
GGCUACUGUAAGAUUUCUATT against 4933406M09Rik | inactive: -0.398
GGUUGGCUUCCUGAAGAUCTT against 1700037H04Rik | inactive: -1.18
GCCUGACGGUUGUAAGAGUTT against Npc2 | inactive: 0.222
GGUCCUAUUCCUACCAUUCTT against A830058L05 | inactive: 0.364
AGACCGACGUGAAAGAGGATT against Hand2 | inactive: 0.508
GGAGUGUGCUCAAUACACATT against Psmc3ip | inactive: -1.32
GGAGGACAUUGGUAAAAAUTT against Ube1x | inactive: -1.66
GGAGAUCCAGUUUUUUAACTT against Ndst1 | inactive: 2.2
GGCAGGUUCGAAGAUGUCUTT against Mknk2 | inactive: -2.8
GGAAAAUAUUACUGAAGUGTT against Olfr1010 | inactive: 0.351
UUCAUUCAUAUGGACAGUUTT against Psg19 | inactive: -0.0859
CCUGUGAACGCGACAUCAATT against Notch4 | inactive: 2.82
GGAAGGGUAAAUUUAGAAGTT against Arrdc3 | inactive: 0.257
CCUUUUAACAGACAUGGUUTT against Tlr1 | inactive: 0.55
CCAGAAGUGGAUAAACUCUTT against Olfr122 | inactive: -0.529
GGCUUUGGAGGACUCAUUUTT against Uros | inactive: 0.614
GCCUGAUGACGGGAAAAUGTT against Glo1 | inactive: -2.38
GCUGUUGCACCAAUUAGUCTT against 4922503E23Rik | inactive: 0.3

Some of the entries so far, as a markdown table:

| Sequence | z-score |
| --- | --- |
| GGACUGAAACUAGGUAGGGTT against Dact2 | inactive: 0.771 |
| CCUCACGGCCUUAUAUCUCTT against Fmod | inactive: 0.0939 |
| GGACUUGAACUGAAAAGUUTT against D830013H23Rik | inactive: 0.299 |
| GCUGUGAUCUCAGUAUUCATT against Strbp | inactive: 2.3 |

Pulled one by one from the list above:
Sequence | z-score
UUCAUUCAUAUGGACAGUUTT against Psg19 | inactive: -0.0859
GGAAAAUAUUACUGAAGUGTT against Olfr1010 | inactive: 0.351

Next results follow.

Sequence | z-score
GCUAUCUAAGCAAAAGAGATT against B230118H07Rik | inactive: 0.32
CCGAAUUUGUAGGAAUCGATT against 5730599I05Rik | inactive: 1.03
CGUAGGUUUUAUAACAUGUTT against Tead3 | inactive: -0.0557
GCAACACAGUAUGUACAAUTT against Dsg4 | inactive: 0.186
CCUGGACGAGUGCUGAAGATT against Crry | inactive: -1.11
GCCAAAGGACAGUUGAAGUTT against Gcs1 | inactive: -0.397
GGUAUUGAGUAUCUUAGGUTT against Atf7 | inactive: 3.37
CCUGUUCAUAUGUAGUGCATT against 1810020G14Rik | inactive: -0.474
CCAACACUAUUACUGUAAATT against Arg2 | inactive: 0.719
GCUAGUUGAUAGUCAGAUATT against Tbrg4 | inactive: 0.00469
GCUCAGCUAGCAGAAAUUCTT against Nalp2 | inactive: -0.139
GCAAUCAAGCUUGAAAGUUTT against Dusp4 | inactive: 1.28
GGCUGAGUGAAUUGGGAAUTT against Olfr419 | inactive: -1.01
CCAAUAGAGAUGCAAAUCATT against Nek6 | inactive: 0.386
CGAACAUUCGGAAAUGUCATT against Ifnb1 | inactive: -0.216
GCUGCAUCGACAUAUCAGATT against Tle2 | inactive: -0.41
GGGAUAAUGCAUGUGAAAATT against Pdk3 | inactive: -1.67
CGAAUUAUGGCACCGUCAATT against P2rx7 | inactive: 2
CGUAGACUUAACCUACAAATT against Dnchc2 | inactive: 0.927
CCAUGAAUGAAGAUCUGUUTT against Taar7a | inactive: -1.61
GCCUCCAGUUGUGAAGUUGTT against Klrg1 | inactive: 0.966
CCCUAAAAACACCUGAGAGTT against BC025105 | inactive: -1.69
CCAACAGAACCAAUAAAGCTT against Btbd9 | inactive: 0.625
CCAUUCUACACUUUUCCACTT against 2310043L02Rik | inactive: -0.942
GGAGCAUUCUCCAUCUAGCTT against 2010308M01Rik | inactive: -0.599
GGUUAUUUAGCUAGCUUAGTT against Capza2 | inactive: 0.306
